Reference: PubChem BioAssay AID588499 (NMMLSC, 2011)
Hit rate of the full screen: of about 360,000 compounds, about 610 (0.17%) were called active. The inconclusive results got no clear call from the source; some entries with a clear call stand among them for comparison. Cut-off read from the data, not from the text of the source: active = inhibition above about 30%; inconclusive = no clear call, values can overlap the other calls; inactive = below that.

Tested on: Botulinum neurotoxin type A light chain protease (Clostridium botulinum A str. ATCC 3502)
Assay: blockers of BoNT/A LC substrate cleavage – biochemical, flow cytometry, MLPCN library, primary screen (AID 588499); note: plate controls were buffer without enzyme for full effect and enzyme alone for no effect
Settings: multiplex microsphere protease substrate cleavage, at 10 µM, hits give high values

Row | Structure (SMILES) | inhibition
1 | CCn1c(SCC(=O)c2ccc3ccccc3c2)nnc1-c1ccco1 | inconclusive: 22.6%
2 | CCN(C(=O)COC(=O)c1nc(Cl)ccc1Cl)C1CCS(=O)(=O)C1 (stereo not given) | inactive: 1.5%
3 | CC(C)[C@H](NC(=O)N1CCn2c1nc1ccccc12)C(=O)N[C@H](C(=O)O)c1ccccc1 | inactive: -1.3%
4 | COc1ccc2c(c1)c(=O)oc1cc3occ(C(C)(C)C)c3cc12 | inconclusive: -0.5%
5 | Cc1cc(=O)oc(C)c1C(=O)NCCCN1C(C)CCCC1C (stereo not given) | inactive: -2.5%
6 | CCN(CC)C(=O)C1CCCN(Cc2ccc(OC)c(C)c2C)C1 (stereo not given) | inconclusive: 2.5%
7 | OC(c1ccccc1)c1nc(-c2cc(F)cc(F)c2)cs1 (stereo not given) | inactive: -0.3%
8 | Cc1ccc(C)c(NC(=O)C(CC(=O)O)C2CCCO2)c1 (stereo not given) | inconclusive: -1.2%
9 | Cc1cccc(C(=O)NCCc2nnc(SCC(=O)Nc3nc(C)cs3)n2C)c1 | inconclusive: 20.9%
10 | CCOC(=O)c1sc(NC(=O)CSc2nc3c(cc2C#N)CCCCCC3)c(C#N)c1C | inconclusive: -7.1%
11 | COc1ccc(-[n+]2c(C)cc(/C=C3\Sc4ccccc4N3C)cc2C)cc1 | active: 68.5%
12 | CCOC(=O)c1cc(NC(=O)c2ccc(OC)cc2)c(=O)oc1-c1ccccc1 | inconclusive: -0.9%
13 | CC(C)Nc1ncnc2c1ncn2[C@H]1CN(CCN2CCOCC2)C[C@@H](CO)O1 | inactive: 0%
14 | N#CCc1nc(C(c2ccccc2)c2ccccc2)no1 | inactive: 2.9%
15 | C=CCN(CC=C)C(=O)C[n+]1ccc(C(N)=O)cc1 | inconclusive: -45.4%
16 | O=[N+]([O-])c1cccc(-c2cn3nc(-c4ccccc4)c(-c4ccccc4)nc3n2)c1 | active: 67.4%
17 | CCCCN(C(=O)C1=COCCO1)c1c(N)n(CCCC)c(=O)[nH]c1=O | inconclusive: -2.1%
18 | Cc1cc2cc(CNC(=O)c3ccc(Br)o3)ccc2[nH]1 | active: 66.7%
19 | COc1ccccc1-n1cnnc1SCC(=O)N1CCOCC1 | inactive: -1.4%
20 | CC1CCCCN1CCNS(=O)(=O)c1ccc2c(c1)oc(=O)n2C (stereo not given) | inconclusive: -0.1%
21 | COc1ccc(C(C)=O)cc1CN1C(=O)C(C)N(c2ccc(C)cc2)C1=O (stereo not given) | inconclusive: 10%
22 | COc1ccccc1OCc1nnc(SCC(=O)c2cc(Cl)ccc2OC)o1 | inconclusive: 1.8%
23 | Cc1cc(NC(=O)Cn2nnc3sc4c(c3c2=O)CCC(C(C)(C)C)C4)no1 (stereo not given) | inconclusive: -0.5%
24 | CC(C)(C)c1ccc(-c2csc(NNC3=NCCCCC3)n2)cc1 | inconclusive: 3%
25 | O=C(c1ccc(N2CCCC2=O)cc1)N1CCN(c2cccc(C(F)(F)F)c2)CC1 | inactive: 1.5%

A draw from above in order of count of non-hydrogen atoms, smallest number first.
Row | Structure (SMILES) | inhibition
2 | CCN(C(=O)COC(=O)c1nc(Cl)ccc1Cl)C1CCS(=O)(=O)C1 (stereo not given) | inactive: 1.5%
11 | COc1ccc(-[n+]2c(C)cc(/C=C3\Sc4ccccc4N3C)cc2C)cc1 | active: 68.5%
16 | O=[N+]([O-])c1cccc(-c2cn3nc(-c4ccccc4)c(-c4ccccc4)nc3n2)c1 | active: 67.4%
